Data published in PubChem BioAssay (EPA / NIEHS).
The shares of active, inactive and inconclusive entries below differ from those in the screen. For part of these data: A potency beside an inconclusive call is a rough fit, not a confirmed value. Activity calls are given as the source filed them. Rule for the calls: active = hit-call score of the fitted dose curve at least 0.9, where 1 is the maximum; inconclusive = response in the unintended direction; inactive = score below 0.9.

Sequences of proteins named here, by UniProt entry; tags and fusion partners are left off. A change or cut given only in a name is not applied to a line headed by its entry.
UniProt Q96RI1: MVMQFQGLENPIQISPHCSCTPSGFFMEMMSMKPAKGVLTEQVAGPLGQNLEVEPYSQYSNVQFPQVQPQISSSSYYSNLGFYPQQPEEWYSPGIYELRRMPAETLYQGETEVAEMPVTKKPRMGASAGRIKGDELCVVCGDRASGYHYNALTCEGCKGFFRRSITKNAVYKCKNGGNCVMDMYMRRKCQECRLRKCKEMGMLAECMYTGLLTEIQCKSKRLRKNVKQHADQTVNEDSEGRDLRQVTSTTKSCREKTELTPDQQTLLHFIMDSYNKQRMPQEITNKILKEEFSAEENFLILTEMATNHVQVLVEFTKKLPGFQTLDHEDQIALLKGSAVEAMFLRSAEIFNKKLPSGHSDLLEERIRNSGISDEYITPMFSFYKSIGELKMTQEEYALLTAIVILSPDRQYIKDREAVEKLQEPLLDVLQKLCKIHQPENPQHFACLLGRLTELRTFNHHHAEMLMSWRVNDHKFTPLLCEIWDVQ
UniProt P11712, whole entry, looked up: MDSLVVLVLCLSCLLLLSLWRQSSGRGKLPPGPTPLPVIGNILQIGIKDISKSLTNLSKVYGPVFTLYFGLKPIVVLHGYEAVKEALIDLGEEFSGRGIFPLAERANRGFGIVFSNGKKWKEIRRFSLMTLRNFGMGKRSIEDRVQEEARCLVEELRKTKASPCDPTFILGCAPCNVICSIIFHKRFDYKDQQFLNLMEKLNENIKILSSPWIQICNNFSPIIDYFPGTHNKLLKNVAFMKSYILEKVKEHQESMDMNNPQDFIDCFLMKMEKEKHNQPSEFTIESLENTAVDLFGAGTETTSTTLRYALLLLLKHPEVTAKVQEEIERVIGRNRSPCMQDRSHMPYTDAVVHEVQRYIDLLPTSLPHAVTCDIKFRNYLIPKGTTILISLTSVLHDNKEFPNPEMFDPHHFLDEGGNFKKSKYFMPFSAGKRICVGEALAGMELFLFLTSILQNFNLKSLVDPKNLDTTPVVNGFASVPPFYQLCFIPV
UniProt P04406: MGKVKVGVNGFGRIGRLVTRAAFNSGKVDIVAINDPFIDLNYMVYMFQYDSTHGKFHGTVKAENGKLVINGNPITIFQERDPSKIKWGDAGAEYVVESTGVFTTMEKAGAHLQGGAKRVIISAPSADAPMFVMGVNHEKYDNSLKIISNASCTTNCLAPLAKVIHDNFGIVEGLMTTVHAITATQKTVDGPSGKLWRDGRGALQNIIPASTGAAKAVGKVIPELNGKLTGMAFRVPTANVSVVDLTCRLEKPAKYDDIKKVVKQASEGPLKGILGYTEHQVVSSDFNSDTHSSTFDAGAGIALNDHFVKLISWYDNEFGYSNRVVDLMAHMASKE
UniProt P33261, whole entry, looked up: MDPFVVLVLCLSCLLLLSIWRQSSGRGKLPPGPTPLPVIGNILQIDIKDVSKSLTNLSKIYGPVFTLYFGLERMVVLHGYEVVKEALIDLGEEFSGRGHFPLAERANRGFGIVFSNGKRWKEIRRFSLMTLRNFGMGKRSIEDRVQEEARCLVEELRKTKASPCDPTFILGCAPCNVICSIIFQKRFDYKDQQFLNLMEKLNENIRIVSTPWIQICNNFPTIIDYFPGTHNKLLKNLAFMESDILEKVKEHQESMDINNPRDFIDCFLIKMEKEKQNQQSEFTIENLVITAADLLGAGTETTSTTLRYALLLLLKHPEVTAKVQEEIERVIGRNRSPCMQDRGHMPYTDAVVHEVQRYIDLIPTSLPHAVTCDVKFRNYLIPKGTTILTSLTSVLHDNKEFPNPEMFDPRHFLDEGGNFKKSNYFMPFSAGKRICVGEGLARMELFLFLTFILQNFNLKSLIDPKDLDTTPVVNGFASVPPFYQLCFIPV
UniProt P49884, whole entry, looked up: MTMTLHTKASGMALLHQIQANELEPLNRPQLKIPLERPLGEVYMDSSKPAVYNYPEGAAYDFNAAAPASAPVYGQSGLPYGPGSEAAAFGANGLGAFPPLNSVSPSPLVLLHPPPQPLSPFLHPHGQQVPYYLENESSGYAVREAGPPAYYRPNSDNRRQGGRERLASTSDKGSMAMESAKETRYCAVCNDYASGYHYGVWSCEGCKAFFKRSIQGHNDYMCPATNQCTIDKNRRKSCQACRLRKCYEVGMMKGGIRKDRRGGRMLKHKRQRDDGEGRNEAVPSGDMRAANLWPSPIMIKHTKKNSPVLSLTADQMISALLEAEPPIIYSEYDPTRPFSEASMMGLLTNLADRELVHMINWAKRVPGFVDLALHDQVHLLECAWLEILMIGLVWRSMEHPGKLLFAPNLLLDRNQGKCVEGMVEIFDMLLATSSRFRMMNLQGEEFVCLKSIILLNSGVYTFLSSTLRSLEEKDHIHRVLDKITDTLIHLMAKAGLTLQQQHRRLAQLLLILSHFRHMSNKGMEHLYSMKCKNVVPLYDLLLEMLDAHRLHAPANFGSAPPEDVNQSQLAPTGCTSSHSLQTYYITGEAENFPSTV
UniProt P19785, whole entry, looked up: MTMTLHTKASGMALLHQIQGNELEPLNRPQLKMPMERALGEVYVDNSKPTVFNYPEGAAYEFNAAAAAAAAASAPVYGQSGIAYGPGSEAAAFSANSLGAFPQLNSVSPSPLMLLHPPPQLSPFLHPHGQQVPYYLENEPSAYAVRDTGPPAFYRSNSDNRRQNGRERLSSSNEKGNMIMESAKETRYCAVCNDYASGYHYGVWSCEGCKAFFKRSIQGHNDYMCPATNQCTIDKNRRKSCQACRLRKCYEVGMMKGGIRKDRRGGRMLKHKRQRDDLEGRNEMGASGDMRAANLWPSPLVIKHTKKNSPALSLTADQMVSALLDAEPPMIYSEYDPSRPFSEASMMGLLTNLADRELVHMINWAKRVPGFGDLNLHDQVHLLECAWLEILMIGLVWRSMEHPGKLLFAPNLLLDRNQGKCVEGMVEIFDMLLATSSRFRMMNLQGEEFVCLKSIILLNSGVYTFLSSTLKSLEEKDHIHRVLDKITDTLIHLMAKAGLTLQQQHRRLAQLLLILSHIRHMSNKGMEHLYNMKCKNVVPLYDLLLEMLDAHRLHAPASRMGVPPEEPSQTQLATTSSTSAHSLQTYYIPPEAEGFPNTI
UniProt O75469: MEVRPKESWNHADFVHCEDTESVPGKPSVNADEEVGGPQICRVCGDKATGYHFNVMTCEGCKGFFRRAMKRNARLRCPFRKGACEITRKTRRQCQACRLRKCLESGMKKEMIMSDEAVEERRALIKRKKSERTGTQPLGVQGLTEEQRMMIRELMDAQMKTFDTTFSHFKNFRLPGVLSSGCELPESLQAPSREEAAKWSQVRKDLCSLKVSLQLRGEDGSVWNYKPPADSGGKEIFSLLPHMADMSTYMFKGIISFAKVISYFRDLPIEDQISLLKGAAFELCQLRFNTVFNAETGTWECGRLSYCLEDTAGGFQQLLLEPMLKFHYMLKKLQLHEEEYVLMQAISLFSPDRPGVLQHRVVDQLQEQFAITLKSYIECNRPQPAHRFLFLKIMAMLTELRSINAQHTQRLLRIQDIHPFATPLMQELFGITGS

How the values were obtained:
[1] = Tanguay_ZF_120hpf_CIRC_legacy: (Legacy) Oregon State University Tanguay Lab 120 Hour Post-fertilization zebrafish Assay for Circulatory Malformation (AID 2283651)
Method in brief: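 Using wild-type Tropical 5D zebrafish, we exposed dechorionated embryos from 6 to 120 hpf in embryo medium with 0.64% DMSO. Circulatory defects were scored as present or absent; 5uM trimethyltin chloride served as positive control.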

[2] = ACEA_AR_antagonist_AUC_viability: ACEA Biosciences xCELLigence Real-Time Cell Analysis on Androgen Receptor Antagonism for Viability (AID 2283776);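 note: 22Rv1 human prostate cancer cells growing on impedance electrode plates; area under impedance growth curve at 80 h after dosing as viability; hits lower the growth signal relative to DMSO meaning cytotoxicity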
Method in brief: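 Real-time electrical impedance tracks 22Rv1 proliferation after continuous compound exposure (top 100 uM final, 1:4 steps, 8 concentrations). The 80 h area-under-curve serves as the cytotoxicity readout relative to DMSO.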

[3] = molecular target: Bile acid receptor (Homo sapiens) (UniProt Q96RI1); test: OT_FXR_FXRSRC1_1440: Odyssey Thera (OT) 24-hour HEK293T Protein-Complementation Assay for Farnesoid X receptor/SRC-1 Co-activator (AID 2283384)
Method in brief: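 Cell-based binding reporter: interaction of FXR with SRC-1 brings reporter fragments together, giving a fluorescence signal read 24 h after dosing of HEK293T cells.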

[4] = read-out: organic anion transporter (SLCO1B1), SLCO1B1 (gene 10599); test: CLD_SLCO1B1_6hr: CellzDirect (CLD) Gene Expression Assay for organic anion transporter (SLCO1B1) at 6 hours (AID 2283668);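 note: active means mRNA induction above DMSO baseline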
Method in brief: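 Primary human hepatocytes dosed daily with test chemicals (multiple concentrations) in 0.2% DMSO vehicle; harvested at 6 h. SLCO1B1 mRNA quantified by qNPA chemiluminescence, fitted as gain-of-signal versus DMSO; cytotoxicity from phase-contrast morphology flagged alongside.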

[5] = CLD_ACTIN_24hr: CellzDirect (CLD) Gene Expression Assay for Baseline Control (Actin) at 24 hours (AID 2283670)
Method in brief: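 Primary human hepatocytes dosed over multiple concentrations with 0.2% DMSO vehicle; actin mRNA measured at 24 h by qNPA chemiluminescence. Background control endpoint, fitted as gain of signal versus DMSO.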

[6] = read-out: HMG-CoA synthase (HMGCS2), HMGCS2 (gene 3158); test: CLD_HMGCS2_6hr: CellzDirect (CLD) Gene Expression Assay for HMG-CoA synthase (HMGCS2) at 6 hours (AID 2283682);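 note: actives raise HMGCS2 transcript above the 0.2% DMSO vehicle baseline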
Method in brief: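 Primary human hepatocytes dosed daily with fresh chemical, 0.2% DMSO vehicle; HMGCS2 mRNA measured at 6 h by qNPA chemiluminescence. Gain of signal fitted against DMSO; cytotoxicity flagged from phase-contrast morphology.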

[7] = read-out: Cytochrome P450 2C9 (Homo sapiens) (UniProt P11712); test: CLD_CYP2C9_24hr: CellzDirect (CLD) Gene Expression Assay for xenobiotic metabolism (CYP2C9) at 24 hours (AID 2283688);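 note: potency for induction meaning a rise in CYP2C9 mRNA over DMSO vehicle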
Method in brief: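 Primary human hepatocytes from two donor preparations, dosed daily for two days at multiple concentrations; vehicle 0.2% DMSO. CYP2C9 mRNA induction at 24 h measured by qNPA chemiluminescence relative to DMSO; cytotoxicity annotated from morphology.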

[8] = read-out: HMG-CoA synthase (HMGCS2), HMGCS2 (gene 3158); test: CLD_HMGCS2_24hr: CellzDirect (CLD) Gene Expression Assay for HMG-CoA synthase (HMGCS2) at 24 hours (AID 2283691)
Method in brief: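 Primary human hepatocytes from two donor preparations, dosed daily with fresh solutions; vehicle 0.2% DMSO, 24 h harvest. HMGCS2 mRNA quantified by qNPA with S1 nuclease digestion and chemiluminescence; gain fitted versus DMSO, cytotoxicity annotated by morphology.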

[9] = read-out: Glyceraldehyde-3-phosphate dehydrogenase (Homo sapiens) (UniProt P04406); test: CLD_GAPDH_24hr: CellzDirect (CLD) Gene Expression Assay for Baseline Control (Glyceraldehyde 3-phosphate dehydrogenase) at 24 hours (AID 2283692)
Method in brief: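 Primary human hepatocytes (two donor preparations) dosed daily for two days, 0.2% DMSO vehicle; GAPDH mRNA measured at 24 h by qNPA chemiluminescence as a background control, gain-of-signal fitted against DMSO.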

[10] = read-out: Cytochrome P450 2C19 (Homo sapiens) (UniProt P33261); test: CLD_CYP2C19_48hr: CellzDirect (CLD) Gene Expression Assay for xenobiotic metabolism (CYP2C19) at 48 hours (AID 2283700);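 note: fitted upward so actives raise CYP2C19 mRNA above the 0.2% DMSO vehicle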
Method in brief: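 Primary human hepatocytes (two donor preparations) dosed daily for two days, harvested at 48 h; CYP2C19 mRNA induction measured by qNPA chemiluminescence. Gain-of-signal fitted relative to 0.2% DMSO vehicle as baseline.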

[11] = read-out: Glyceraldehyde-3-phosphate dehydrogenase (Homo sapiens) (UniProt P04406); test: CLD_GAPDH_48hr: CellzDirect (CLD) Gene Expression Assay for Baseline Control (Glyceraldehyde 3-phosphate dehydrogenase) at 48 hours (AID 2283706)
Method in brief: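 Primary human hepatocytes dosed daily for two days with fresh chemical at multiple concentrations, 0.2% DMSO vehicle; GAPDH mRNA measured at 48 h by quantitative nuclease protection assay with chemiluminescence, fitted upward relative to DMSO as background control.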

[12] = read-out: organic anion transporter (SLCO1B1), SLCO1B1 (gene 10599); test: CLD_SLCO1B1_48hr: CellzDirect (CLD) Gene Expression Assay for organic anion transporter (SLCO1B1) at 48 hours (AID 2283707)
Method in brief: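 Primary human hepatocytes from two donor preparations dosed daily for two days with multiple concentrations, 0.2% DMSO vehicle. SLCO1B1 mRNA at 48 h by quantitative nuclease protection assay, chemiluminescence; gain-of-signal fitted versus DMSO.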

[13] = read-out: HMG-CoA synthase (HMGCS2), HMGCS2 (gene 3158); test: CLD_HMGCS2_48hr: CellzDirect (CLD) Gene Expression Assay for HMG-CoA synthase (HMGCS2) at 48 hours (AID 2283711)
Method in brief: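 Primary human hepatocytes from two donors dosed daily for two days, 0.2% DMSO vehicle. HMGCS2 mRNA measured 48 h after dosing by quantitative nuclease protection assay with chemiluminescent read-out; induction fitted relative to DMSO, cytotoxicity flagged by microscopy.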

[14] = molecular target: bovine Estrogen Receptor (ER), ESR1 (gene 407238) (UniProt P49884); test: NVS_NR_bER: NovaScreen (NVS) Nuclear Receptor Binding Assay for bovine Estrogen Receptor (ER) (AID 2283345);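 note: actives lower the bound radioligand count which means they displace the ER ligand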
Method in brief: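 Cell-free radioligand binding with receptor from bovine uterine membranes, read by scintillation counting 18 h after dosing. Loss of specific binding was scored against DMSO; primary screen at 25 uM in duplicate, actives then run as concentration series.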

[15] = molecular target: mouse Estrogen Receptor alpha (Era), Esr1 (gene 13982) (UniProt P19785); test: NVS_NR_mERa: NovaScreen (NVS) Nuclear Receptor Binding Assay for mouse Estrogen Receptor alpha (Era) (AID 2283378);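 note: hit means loss of bound radioligand signal relative to DMSO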
Method in brief: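 Cell-free radioligand competitive displacement binding, read by filter-based scintillation counting 18 h after dosing. Primary screen run in duplicate at 25 uM, actives retested in concentration series; loss of signal versus DMSO.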

[16] = molecular target: Bile acid receptor (Homo sapiens) (UniProt Q96RI1); test: OT_FXR_FXRSRC1_0480: Odyssey Thera (OT) 8-hour HEK293T Protein-Complementation Assay for Farnesoid X receptor/SRC-1 Co-activator (AID 2283383)
Method in brief: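 Co-activator recruitment to FXR was measured in living HEK293T cells, where interaction of the two fused partners restored an active fluorescent reporter. Signal gain after 8 h treatment was referenced to DMSO.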

[17] = CCTE_Deisenroth_AIME_384WELL_CTox_Active: Cytotoxicity Assessment (CTOX) in CCTE's 384-well Estrogen Receptor Transactivation Assay with AIME metabolic competence (metabolism positive), Deisenroth Lab (AID 2284037);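 note: chemicals first conditioned 2 h by alginate-bound induced rat liver S9 before cells; activity means signal loss indicating cell death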
Method in brief: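 VM7Luc4E2 breast cells received medium pre-incubated 2 h with chemical over alginate microspheres holding induced male Sprague Dawley rat liver S9; viability read 24 h later by protease-substrate fluorescence. Loss of signal, bidirectional fit, 0.002–200 uM.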

[18] = molecular target: Nuclear receptor subfamily 1 group I member 2 (Homo sapiens) (UniProt O75469); test: NVS_NR_hPXR: NovaScreen (NVS) Nuclear Receptor Binding Assay for human Pregnane X Receptor (PXR) (AID 2283365);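 note: a drop in FRET signal versus DMSO baseline means the compound binds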
Method in brief: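 Cell-free TR-FRET binding assay with extracted human PXR protein, read 2 h after dosing. Primary screen run in duplicate at 25 uM, actives followed in concentration series; loss of signal fitted against DMSO baseline.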

[19] = Tanguay_ZF_120hpf_NC_legacy: (Legacy) Oregon State University Tanguay Lab 120 Hour Post-fertilization zebrafish Assay for Notochord and Tail Malformation (AID 2283656)
Method in brief: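 Dechorionated 5D zebrafish, 1/well from 6 hpf; static exposure to 120 hpf, 28C, sealed, dark; final DMSO 0.64% v/v. NC scored binary (present/absent); dead embryos not scored. Fit vs DMSO baseline, gain direction.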

## CN(C)[C@@H]1C(=O)C(C(N)=O)=C(O)[C@@]2(O)C(=O)C3=C(O)c4c(O)cccc4[C@@](C)(O)[C@H]3C[C@@H]12
[1]
  outcome: inactive
[2]
  AC50: inconclusive: 50 µM

## CC(Oc1cccc(Cl)c1)C(=O)O (stereo not given)
[3]
  outcome: inactive
[4]
  AC50: inconclusive: 20 µM
[5]
  outcome: inactive
[6]
  outcome: inactive
[7]
  AC50: inconclusive: 0.0105 µM
[8]
  outcome: inactive
[9]
  outcome: inactive
[10]
  outcome: inactive
[11]
  AC50: inconclusive: 0.0004 µM
[12]
  outcome: inactive
[13]
  AC50: inconclusive: 0.0148 µM

## CNC(=O)O/N=C/C(C)(C)S(C)=O (stereo not given)
[14]
  AC50: inconclusive: 25 µM
[15]
  AC50: inconclusive: 1.82 µM
[16]
  outcome: inactive
[3]
  AC50: inconclusive: 49.8 µM
[2]
  AC50: inconclusive: 0.208 µM
[17]
  AC50: inconclusive: 0.0002 µM

## CCCN(CCC)c1c([N+](=O)[O-])cc(C(C)C)cc1[N+](=O)[O-]
[15]
  outcome: inactive
[1]
  AC50: inconclusive: 1.81 µM
[17]
  AC50: inconclusive: 100 µM

## CC[N+](=O)[O-]
[18]
  AC50: inconclusive: 0.0287 µM
[2]
  outcome: inactive

## CCCCCCOC(=O)c1ccccc1C(=O)OCCCCCC
[15]
  outcome: inactive
[17]
  AC50: inconclusive: 0.000221 µM

## Clc1ccccc1Cl
[18]
  AC50: inconclusive: 0.0911 µM
[19]
  outcome: inactive

## CCOC(=O)c1ccccc1N
[18]
  AC50: inconclusive: 0.87 µM
[16]
  AC50: inconclusive: 50 µM
